Data published in article doi:10.1101/2021.10.04.21264162.
These are yes or no findings as the source states them, for the method shown. In cells and extracts the contact can be indirect. Some results given as binding are weak or reduced against the parent protein; the word gives no strength.

Sequences of proteins named here, by UniProt entry; tags and fusion partners are left off. A change or cut given only in a name is not applied to a line headed by its entry. A line that says so, or that is headed by a name, gives the form on record, which may keep a tag or linker. Residues count along the entry.
YFP-tagged C-terminal region of CHD3 (residues 1246-1944) (Q12873, residues 1246-1944): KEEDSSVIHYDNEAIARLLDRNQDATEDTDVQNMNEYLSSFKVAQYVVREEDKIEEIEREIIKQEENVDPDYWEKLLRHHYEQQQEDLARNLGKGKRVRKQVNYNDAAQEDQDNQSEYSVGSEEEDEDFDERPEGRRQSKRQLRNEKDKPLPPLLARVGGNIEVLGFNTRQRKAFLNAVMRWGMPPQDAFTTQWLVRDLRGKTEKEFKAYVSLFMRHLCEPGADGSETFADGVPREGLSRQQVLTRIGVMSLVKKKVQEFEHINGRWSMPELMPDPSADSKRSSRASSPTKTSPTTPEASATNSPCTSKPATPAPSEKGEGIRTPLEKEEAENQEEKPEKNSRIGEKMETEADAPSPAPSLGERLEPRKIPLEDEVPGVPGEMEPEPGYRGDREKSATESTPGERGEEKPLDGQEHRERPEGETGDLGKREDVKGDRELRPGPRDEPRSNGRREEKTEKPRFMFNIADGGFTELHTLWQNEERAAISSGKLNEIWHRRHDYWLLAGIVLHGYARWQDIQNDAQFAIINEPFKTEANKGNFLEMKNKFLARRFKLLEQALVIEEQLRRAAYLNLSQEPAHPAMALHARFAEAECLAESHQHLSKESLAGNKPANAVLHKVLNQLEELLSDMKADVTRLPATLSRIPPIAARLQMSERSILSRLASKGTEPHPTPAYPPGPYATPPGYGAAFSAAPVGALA
YFP-tagged C-terminal region of CHD3 (residues 1246-1944) p.E1837K (Q12873, form named): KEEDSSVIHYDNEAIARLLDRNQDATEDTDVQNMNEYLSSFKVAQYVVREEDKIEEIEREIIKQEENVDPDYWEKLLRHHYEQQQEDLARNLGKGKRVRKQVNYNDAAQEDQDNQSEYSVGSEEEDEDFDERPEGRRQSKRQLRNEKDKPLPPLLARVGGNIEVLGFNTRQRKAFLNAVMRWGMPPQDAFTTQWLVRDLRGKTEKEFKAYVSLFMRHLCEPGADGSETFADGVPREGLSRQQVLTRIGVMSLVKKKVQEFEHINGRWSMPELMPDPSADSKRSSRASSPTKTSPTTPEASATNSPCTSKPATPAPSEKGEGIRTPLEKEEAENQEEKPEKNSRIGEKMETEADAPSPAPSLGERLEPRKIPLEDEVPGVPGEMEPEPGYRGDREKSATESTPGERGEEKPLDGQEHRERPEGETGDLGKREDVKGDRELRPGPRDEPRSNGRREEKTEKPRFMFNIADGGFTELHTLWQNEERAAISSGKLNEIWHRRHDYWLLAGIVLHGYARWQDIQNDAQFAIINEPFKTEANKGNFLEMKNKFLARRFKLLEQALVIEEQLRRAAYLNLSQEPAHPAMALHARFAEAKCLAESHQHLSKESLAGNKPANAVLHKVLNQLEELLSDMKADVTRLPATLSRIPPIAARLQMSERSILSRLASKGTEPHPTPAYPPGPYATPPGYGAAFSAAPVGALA
YFP-tagged C-terminal region of CHD3 (residues 1246-1944) p.R1342Q (Q12873, form named): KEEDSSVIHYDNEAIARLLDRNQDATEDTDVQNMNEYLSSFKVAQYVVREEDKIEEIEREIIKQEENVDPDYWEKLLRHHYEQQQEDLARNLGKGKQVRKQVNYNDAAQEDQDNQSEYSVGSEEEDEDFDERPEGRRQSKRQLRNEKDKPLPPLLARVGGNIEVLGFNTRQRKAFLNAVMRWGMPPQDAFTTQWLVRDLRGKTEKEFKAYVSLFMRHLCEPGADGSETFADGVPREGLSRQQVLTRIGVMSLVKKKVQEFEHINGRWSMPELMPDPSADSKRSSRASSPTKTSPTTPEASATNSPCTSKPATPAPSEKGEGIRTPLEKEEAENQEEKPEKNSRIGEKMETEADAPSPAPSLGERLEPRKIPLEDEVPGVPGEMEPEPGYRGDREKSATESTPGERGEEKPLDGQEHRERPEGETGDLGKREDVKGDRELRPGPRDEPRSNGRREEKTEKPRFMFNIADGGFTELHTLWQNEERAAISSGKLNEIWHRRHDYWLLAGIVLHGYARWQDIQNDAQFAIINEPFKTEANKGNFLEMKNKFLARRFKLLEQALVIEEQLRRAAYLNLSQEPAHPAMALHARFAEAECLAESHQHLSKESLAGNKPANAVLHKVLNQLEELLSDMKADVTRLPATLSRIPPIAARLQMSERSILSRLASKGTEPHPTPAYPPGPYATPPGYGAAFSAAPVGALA
UniProt Q8WXI9: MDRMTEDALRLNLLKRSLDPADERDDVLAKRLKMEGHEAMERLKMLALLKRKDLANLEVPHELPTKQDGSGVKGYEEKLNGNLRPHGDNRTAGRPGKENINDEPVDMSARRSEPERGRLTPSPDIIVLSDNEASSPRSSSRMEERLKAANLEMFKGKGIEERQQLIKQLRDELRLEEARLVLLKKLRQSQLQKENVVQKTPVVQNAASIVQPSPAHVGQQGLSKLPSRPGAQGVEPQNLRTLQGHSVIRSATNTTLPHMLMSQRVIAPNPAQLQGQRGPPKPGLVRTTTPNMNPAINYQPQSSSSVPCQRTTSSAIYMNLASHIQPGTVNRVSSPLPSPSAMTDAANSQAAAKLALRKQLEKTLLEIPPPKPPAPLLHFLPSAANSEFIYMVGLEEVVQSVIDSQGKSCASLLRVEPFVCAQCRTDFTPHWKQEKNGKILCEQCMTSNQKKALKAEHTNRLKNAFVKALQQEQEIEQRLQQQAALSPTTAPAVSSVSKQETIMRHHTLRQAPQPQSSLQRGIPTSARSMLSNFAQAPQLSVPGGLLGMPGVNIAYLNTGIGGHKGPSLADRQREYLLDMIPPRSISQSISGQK

How the values were obtained:
Test in all cases: co-IP
[1] = target: YFP-tagged C-terminal region of CHD3 (residues 1246-1944) p.E1837K (human) (UniProt Q12873)
[2] = target: YFP-tagged C-terminal region of CHD3 (residues 1246-1944) p.R1342Q (human) (UniProt Q12873)
[3] = target: YFP-tagged C-terminal region of CHD3 (residues 1246-1944) (human) (UniProt Q12873)

Measured: binding

Rluc-tagged GATAD2B (from UniProt Q8WXI9 1-593)
binds: all assays above
